The supplement of paper PMC10849652
The other results are listed elsewhere or left out.

The chains behind the UniProt entries cited, without tags or fusion partners. Where a name states a change or a piece, a line headed by the entry shows the natural chain unless it says otherwise.
UniProt O95400: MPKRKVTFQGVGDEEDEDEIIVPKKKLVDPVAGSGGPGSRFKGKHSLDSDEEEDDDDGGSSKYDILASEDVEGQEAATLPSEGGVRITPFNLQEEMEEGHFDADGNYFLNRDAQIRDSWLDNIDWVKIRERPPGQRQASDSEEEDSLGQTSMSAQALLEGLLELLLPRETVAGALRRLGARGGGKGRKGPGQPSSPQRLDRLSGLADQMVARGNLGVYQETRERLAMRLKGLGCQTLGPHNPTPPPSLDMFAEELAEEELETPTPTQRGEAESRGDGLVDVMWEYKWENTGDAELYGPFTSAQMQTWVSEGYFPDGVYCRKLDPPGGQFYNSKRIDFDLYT
UniProt P24863: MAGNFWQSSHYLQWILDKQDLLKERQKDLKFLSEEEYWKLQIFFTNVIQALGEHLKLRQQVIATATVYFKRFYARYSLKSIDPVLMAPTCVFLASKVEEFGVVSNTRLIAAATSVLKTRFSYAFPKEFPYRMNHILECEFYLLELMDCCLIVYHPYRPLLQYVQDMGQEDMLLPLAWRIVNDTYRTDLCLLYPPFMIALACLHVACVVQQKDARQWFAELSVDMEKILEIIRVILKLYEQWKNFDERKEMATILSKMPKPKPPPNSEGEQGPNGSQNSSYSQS
UniProt Q7Z3E2: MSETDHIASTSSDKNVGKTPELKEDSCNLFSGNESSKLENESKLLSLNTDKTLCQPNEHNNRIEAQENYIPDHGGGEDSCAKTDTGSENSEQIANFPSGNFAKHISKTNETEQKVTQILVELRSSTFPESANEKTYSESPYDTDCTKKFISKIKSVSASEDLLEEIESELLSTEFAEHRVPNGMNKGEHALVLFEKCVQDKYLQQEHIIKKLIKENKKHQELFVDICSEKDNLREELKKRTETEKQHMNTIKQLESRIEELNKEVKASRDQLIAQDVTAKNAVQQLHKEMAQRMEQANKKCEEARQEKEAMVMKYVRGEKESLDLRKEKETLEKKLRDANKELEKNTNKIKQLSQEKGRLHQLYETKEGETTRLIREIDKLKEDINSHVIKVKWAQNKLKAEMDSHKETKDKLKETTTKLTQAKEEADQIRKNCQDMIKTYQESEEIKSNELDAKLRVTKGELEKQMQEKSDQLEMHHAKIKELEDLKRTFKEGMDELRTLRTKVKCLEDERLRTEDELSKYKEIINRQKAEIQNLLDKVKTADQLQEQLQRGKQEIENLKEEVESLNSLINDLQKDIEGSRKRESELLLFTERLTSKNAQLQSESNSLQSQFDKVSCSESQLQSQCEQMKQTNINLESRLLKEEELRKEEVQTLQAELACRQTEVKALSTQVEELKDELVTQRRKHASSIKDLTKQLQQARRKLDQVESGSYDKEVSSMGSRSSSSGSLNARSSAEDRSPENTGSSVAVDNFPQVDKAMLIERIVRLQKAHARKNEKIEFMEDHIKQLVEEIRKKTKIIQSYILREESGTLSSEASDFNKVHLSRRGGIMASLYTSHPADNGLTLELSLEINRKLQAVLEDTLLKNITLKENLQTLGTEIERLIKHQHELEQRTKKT
UniProt Q07108: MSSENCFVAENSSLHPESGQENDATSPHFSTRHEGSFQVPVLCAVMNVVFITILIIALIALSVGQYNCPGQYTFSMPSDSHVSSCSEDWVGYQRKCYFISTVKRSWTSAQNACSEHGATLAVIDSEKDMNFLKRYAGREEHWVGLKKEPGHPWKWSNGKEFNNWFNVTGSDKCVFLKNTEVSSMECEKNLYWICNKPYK
UniProt Q5M9N0: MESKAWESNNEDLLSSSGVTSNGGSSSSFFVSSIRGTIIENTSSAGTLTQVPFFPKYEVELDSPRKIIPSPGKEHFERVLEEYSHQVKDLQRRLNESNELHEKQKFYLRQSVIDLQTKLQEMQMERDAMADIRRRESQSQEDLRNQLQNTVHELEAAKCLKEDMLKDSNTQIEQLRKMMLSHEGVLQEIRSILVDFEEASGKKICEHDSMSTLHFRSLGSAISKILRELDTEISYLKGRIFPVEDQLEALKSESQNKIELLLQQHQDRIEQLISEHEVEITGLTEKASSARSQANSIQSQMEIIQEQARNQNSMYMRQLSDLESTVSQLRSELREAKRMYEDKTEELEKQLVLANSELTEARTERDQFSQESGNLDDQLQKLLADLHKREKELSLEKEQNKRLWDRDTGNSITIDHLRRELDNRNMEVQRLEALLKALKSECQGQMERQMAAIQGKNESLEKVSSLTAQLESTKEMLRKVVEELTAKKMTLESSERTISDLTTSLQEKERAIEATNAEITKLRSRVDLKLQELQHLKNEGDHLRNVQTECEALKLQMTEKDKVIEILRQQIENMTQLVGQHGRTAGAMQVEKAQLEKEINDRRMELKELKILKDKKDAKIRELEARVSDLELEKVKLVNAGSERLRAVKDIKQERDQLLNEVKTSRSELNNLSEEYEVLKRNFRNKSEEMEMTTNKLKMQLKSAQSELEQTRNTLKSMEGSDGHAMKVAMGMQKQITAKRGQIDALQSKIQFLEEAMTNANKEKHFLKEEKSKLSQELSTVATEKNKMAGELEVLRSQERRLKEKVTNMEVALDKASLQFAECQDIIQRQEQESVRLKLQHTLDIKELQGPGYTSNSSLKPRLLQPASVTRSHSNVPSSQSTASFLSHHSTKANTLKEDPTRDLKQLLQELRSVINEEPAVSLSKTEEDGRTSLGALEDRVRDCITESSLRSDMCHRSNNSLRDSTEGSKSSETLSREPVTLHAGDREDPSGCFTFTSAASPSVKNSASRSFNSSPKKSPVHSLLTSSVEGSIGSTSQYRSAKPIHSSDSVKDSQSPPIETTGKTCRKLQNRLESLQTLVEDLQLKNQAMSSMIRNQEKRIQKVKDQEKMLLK
UniProt P24864, whole entry, looked up: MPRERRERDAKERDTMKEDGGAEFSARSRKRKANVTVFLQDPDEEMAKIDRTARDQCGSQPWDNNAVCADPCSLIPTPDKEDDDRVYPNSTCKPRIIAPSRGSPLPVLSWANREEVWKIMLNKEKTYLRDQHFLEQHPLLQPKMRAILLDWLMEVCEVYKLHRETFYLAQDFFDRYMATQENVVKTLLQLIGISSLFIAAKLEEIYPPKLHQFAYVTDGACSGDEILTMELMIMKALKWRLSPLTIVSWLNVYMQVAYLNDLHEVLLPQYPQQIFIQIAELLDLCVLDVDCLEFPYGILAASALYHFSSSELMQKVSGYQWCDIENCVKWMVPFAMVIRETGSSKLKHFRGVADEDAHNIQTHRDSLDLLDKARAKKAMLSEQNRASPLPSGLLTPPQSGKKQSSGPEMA
UniProt Q8N9Z2: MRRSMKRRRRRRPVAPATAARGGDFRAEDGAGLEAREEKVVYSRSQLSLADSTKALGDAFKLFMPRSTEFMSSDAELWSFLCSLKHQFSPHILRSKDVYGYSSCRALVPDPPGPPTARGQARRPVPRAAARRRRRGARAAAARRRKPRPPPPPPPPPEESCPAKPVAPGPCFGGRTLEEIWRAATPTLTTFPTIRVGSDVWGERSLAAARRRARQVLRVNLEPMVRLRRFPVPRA
UniProt Q9HA77: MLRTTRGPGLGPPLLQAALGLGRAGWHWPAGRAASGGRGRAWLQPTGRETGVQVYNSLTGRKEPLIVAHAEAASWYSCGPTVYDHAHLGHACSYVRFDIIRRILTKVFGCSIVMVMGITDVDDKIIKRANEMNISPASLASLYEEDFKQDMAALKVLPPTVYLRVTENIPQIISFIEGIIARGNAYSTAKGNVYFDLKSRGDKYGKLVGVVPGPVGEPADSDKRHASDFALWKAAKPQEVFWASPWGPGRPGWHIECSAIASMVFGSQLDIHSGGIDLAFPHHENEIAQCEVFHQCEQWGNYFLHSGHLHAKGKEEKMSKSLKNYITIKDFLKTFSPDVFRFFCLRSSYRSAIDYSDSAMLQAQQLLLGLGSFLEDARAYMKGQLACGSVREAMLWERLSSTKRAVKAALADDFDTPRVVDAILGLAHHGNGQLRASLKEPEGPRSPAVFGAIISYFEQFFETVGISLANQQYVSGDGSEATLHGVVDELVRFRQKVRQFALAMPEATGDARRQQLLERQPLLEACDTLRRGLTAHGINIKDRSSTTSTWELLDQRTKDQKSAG
UniProt P0C221: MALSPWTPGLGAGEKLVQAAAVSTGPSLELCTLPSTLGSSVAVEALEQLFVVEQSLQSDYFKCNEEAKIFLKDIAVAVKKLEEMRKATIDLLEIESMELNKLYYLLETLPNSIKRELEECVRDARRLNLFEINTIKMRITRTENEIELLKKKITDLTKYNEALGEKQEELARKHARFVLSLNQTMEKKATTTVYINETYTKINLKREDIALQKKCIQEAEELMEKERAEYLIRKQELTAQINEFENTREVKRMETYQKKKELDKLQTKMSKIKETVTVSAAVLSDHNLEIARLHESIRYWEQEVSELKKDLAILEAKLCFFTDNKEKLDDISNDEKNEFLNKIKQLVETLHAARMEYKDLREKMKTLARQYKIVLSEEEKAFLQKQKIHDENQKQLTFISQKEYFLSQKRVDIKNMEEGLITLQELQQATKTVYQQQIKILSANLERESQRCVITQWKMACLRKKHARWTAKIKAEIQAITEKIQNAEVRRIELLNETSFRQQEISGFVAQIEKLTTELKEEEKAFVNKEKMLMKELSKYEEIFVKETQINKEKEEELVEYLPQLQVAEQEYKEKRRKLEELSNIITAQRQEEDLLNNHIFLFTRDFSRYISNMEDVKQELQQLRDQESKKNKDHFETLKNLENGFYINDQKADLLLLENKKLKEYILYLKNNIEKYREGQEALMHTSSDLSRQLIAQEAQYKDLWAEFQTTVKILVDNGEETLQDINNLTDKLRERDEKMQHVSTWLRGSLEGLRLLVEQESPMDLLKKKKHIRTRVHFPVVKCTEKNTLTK
UniProt P14209: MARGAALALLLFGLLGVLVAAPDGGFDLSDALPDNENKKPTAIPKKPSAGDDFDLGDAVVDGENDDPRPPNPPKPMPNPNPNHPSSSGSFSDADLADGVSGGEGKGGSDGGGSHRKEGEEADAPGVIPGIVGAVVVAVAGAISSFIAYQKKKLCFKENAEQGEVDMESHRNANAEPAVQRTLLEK
UniProt Q9P0B6: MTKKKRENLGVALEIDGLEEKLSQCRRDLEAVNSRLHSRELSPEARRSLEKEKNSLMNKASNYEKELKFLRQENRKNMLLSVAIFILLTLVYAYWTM
UniProt P51636: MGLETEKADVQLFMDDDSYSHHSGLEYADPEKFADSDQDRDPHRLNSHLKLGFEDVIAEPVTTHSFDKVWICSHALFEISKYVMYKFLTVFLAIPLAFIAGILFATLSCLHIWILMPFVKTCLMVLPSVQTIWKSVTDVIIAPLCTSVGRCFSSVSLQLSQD
UniProt P30305: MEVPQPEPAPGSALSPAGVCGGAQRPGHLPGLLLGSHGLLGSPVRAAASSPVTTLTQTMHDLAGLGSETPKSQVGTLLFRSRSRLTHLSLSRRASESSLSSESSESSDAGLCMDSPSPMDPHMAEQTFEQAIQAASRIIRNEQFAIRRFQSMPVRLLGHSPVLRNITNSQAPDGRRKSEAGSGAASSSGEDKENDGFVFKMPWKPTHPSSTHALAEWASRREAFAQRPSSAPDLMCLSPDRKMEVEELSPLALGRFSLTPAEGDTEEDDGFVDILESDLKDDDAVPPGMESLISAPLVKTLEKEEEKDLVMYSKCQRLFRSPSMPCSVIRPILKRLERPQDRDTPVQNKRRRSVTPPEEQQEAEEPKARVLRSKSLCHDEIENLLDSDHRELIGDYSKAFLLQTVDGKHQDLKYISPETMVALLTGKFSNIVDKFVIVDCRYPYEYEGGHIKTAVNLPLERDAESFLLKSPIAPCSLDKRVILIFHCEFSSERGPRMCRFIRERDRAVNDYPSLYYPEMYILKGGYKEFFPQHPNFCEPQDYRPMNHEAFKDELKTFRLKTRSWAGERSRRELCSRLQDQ
UniProt Q04900: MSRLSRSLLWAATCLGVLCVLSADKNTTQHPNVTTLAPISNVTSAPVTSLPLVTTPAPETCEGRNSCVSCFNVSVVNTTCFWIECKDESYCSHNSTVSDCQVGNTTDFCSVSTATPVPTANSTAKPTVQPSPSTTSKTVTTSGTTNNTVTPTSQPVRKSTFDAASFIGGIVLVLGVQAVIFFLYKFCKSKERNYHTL
UniProt P15529: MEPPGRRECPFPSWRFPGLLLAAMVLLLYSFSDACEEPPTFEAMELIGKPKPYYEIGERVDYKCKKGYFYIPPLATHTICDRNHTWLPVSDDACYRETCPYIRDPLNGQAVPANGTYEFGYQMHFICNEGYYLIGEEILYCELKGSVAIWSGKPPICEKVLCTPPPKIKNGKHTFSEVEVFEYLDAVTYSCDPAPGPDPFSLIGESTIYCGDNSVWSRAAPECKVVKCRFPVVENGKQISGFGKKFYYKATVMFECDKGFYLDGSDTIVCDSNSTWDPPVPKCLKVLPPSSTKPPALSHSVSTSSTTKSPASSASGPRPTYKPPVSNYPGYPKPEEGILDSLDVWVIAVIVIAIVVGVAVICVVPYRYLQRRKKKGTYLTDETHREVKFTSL

compound: C1=CC=C(C=C1)[C@H](COC2=CC3=C(C=C2)NC(=O)N3)NC(=O)C4=CC=CN(C4=O)CC5=CC(=C(C=C5)F)F; assay: log2 fold change, soluble protein after heating vs DMSO (PISA); higher = thermal stabilisation; K562 cells, 10 uM, 30 min; active = over 0.2 and 3.5 SD of the protein, either way, in both replicates (recomputed)
In short: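 K562 cells (2×10^6 cells/mL) were treated with 10 μM compound for 30 min, and aliquots were heated for 3 min over 48°C-58°C. Pooled aliquots were extracted in PBS with 0.5% NP-40 at 4°C, and the supernatant after 21,000xg for 90 min was measured by TMTpro 16plex LC-MS/MS with channel sums equalised. Reported thermal stability, relative to control samples and from duplicates, is a log2 fold change.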

Target | log2 fold change
CCNYL1 (UniProt Q8N7R7) | inactive: 0.191
CD2BP2 (UniProt O95400) | inactive: 0.028
CCNC (UniProt P24863) | inactive: -0.139
CCDC186 (UniProt Q7Z3E2) | inactive: -0.158
CD69 (UniProt Q07108) | inactive: -0.037
CCDC158 (UniProt Q5M9N0) | inactive: 0.036
CCNE1 (UniProt P24864) | inactive: 0.067
CASC3 (UniProt O15234) | inactive: 0.02
CASP8 isoform 9 (UniProt Q14790) | inactive: -0.013
CCDC71L isoform 2 (UniProt Q8N9Z2) | inactive: -0.211
CARS2 (UniProt Q9HA77) | inactive: -0.015
CCDC175 (UniProt P0C221) | inactive: 0.217
CDC37 (UniProt K7EL68) | inactive: -0.075
CD99 (UniProt P14209) | inactive: 0.019
CCDC28B (UniProt Q9BUN5) | inactive: -0.132
CCDC167 (UniProt Q9P0B6) | inactive: 0.153
CAV2 (UniProt P51636) | inactive: 0
CDC25B isoform 4 (UniProt P30305) | inactive: 0.107
CD164 (UniProt Q04900) | inactive: 0.015
CD46 (UniProt P15529) | inactive: 0.109

Quoted at random: two records from the list
Target | log2 fold change
CD164 (UniProt Q04900) | inactive: 0.015
CCDC71L isoform 2 (UniProt Q8N9Z2) | inactive: -0.211
